Data source: PubChem BioAssay AID1224827 (NIAID, 2016)

Purpose: 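Confirm genes whose knock-down changes LPS-driven TNF promoter activity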 (follow-up of hits)
System: RAW264.7 G9 mouse macrophage reporter clone
Reagent: single siRNA against mouse genes, 100 nM siRNA
Duration: siRNA for 2 days, then LPS about 16 h
Conditions: bacterial lipopolysaccharide (LPS), 10 ng/ml, cells fixed after overnight (about 16 h) stimulation
Detection: 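TNF promoter reporter red fluorescence in nuclei, background subtracted, normalised per plate and to non-targeting control siRNA, as z-scores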
Direction: TNF reporter z-score, mean: higher = stronger Tnf promoter reporter signal
Rule for the call: 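An siRNA is called active when its mean z-score over replicates is at least +2 or at most -2; control wells get no call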
In all, the deposit lists about 3,800 reagents; this is a random part of them. About 2,200 of all reagents (57%) were called active. 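Active means a strong reporter change in either direction; calls are per siRNA, not per gene; qiagen siRNAs gave weaker effects.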 The numbers tell different reagents against one gene apart. Further read-outs or replicates are left out here.

The opening 3 records, to show the layout:
target gene,reagent no.,"TNF reporter z-score, mean",outcome
Serpine2,1,0.0809,inactive
Serpine2,2,-3.59,active
Serpine2,3,-5.33,active

The list itself, from the start:
target gene,reagent no.,"TNF reporter z-score, mean",outcome
Serpine2,1,0.0809,inactive
Serpine2,2,-3.59,active
Serpine2,3,-5.33,active
Serpine2,4,1.32,inactive
Serpine2,5,-0.455,inactive
Serpine2,6,-2.44,active
Exosc1,1,0.855,inactive
Exosc1,2,-4.15,active
Exosc1,3,-4.9,active
Exosc1,4,0.331,inactive
Exosc1,5,0.138,inactive
Exosc1,6,-1.95,inactive
Or2h1,1,-1.66,inactive
Or2h1,2,-2.24,active
Or2h1,3,-3.62,active
Or2h1,4,2.44,active
Or2h1,5,0.0868,inactive
Or2h1,6,0.563,inactive
Tmem171,1,-5,active
Tmem171,2,-5.35,active
Tmem171,3,-5.83,active
Tmem171,4,1.79,inactive
Tmem171,5,-2.36,active
Tmem171,6,-2.13,active
